# Results from one PubChem assay

Source: PubChem BioAssay AID1053133 (Broad Institute, 2014).

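Vaccinia-infected cells with a two-color viral stage reporter; Venus fluorescence read on a plate reader; the cell line is not named here; timing not stated here.
The test concentration is not given here.
Percent change in Venus reporter signal; lower (more negative) values mean stronger inhibition of that viral stage.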

Values are in %.
How 0% and 100% were set is not given here.
Common to all entries: measured here: Venus reporter, other viral stage.
This is a side read-out of the assay, for part of the compounds, not drawn at random.

| # | SMILES | activity change (Venus) (%) |
|---|---|---|
| 1 | `COc1cccc(NC(=O)N2CC(=O)N3[C@H](CO)[C@@H](c4ccc(C#CCC5CCCC5)cc4)[C@@H]3C2)c1` | -71.18 |
| 2 | `C[C@@H]1CN([C@H](C)CO)C(=O)c2cc(NS(=O)(=O)c3ccc(Cl)cc3)ccc2O[C@@H](C)CCCCO[C@@H]1CN(C)Cc1ccc(C(F)(F)F)cc1` | -27.71 |
| 3 | `O=S(=O)(c1ccccc1)N1C[C@H]2[C@@H](c3ccccc31)[C@H](CO)N2Cc1ccc2c(c1)OCO2` | -28.63 |
| 4 | `C[C@H](CO)N1C[C@H](C)[C@@H](CN(C)Cc2ccccc2)Oc2cc(/C=C/c3ccccc3)ccc2S1(=O)=O` | -31.18 |
| 5 | `COc1ccc(NC(=O)N2CCCCN3[C@H](CO)[C@H](c4ccc(-c5ccccc5C)cc4)[C@@H]3C2)cc1` | -38.63 |
| 6 | `COc1ccc(CN(C)C[C@H]2Oc3ccc(NS(=O)(=O)c4ccc(C)cc4)cc3CC(=O)N([C@H](C)CO)C[C@@H]2C)cc1` | -28.57 |
| 7 | `C[C@H](CO)N1C[C@H](C)[C@@H](CN(C)CC2CCCCC2)OCCCC[C@H](C)Oc2ccc(NC(=O)Nc3ccccc3)cc2C1=O` | -47.12 |
| 8 | `Cc1noc(C)c1S(=O)(=O)Nc1ccc2c(c1)C(=O)N([C@@H](C)CO)C[C@@H](C)[C@@H](CN(C)S(=O)(=O)c1ccccc1)OCCCC[C@H](C)O2` | -24.65 |
| 9 | `Cc1ccc(-c2ccc3c(c2)O[C@@H](CN(C)CC2CCCC2)[C@H](C)CN([C@@H](C)CO)S3(=O)=O)cc1` | -40.92 |
| 10 | `O=C(c1ccc(F)cc1)N1CC(=O)N2[C@H](CO)[C@@H](c3ccc(C#CCC4CCCC4)cc3)[C@H]2C1` | -59.86 |
| 11 | `C[C@H]1CCCCO[C@H](CN(C)CC2CCCCC2)[C@@H](C)CN([C@@H](C)CO)C(=O)c2cc(NC(=O)Nc3cccc4ccccc34)ccc2O1` | -52.29 |
| 12 | `C[C@H]1CN([C@@H](C)CO)C(=O)c2c(c3ccccc3n2C)-c2ccccc2CO[C@@H]1CN(C)Cc1ccc(Cl)c(Cl)c1` | -63.88 |
| 13 | `C[C@@H]1CN([C@@H](C)CO)C(=O)c2cc(/C=C/c3ccccc3)cnc2O[C@H]1CN(C)C(=O)Nc1ccc(C(F)(F)F)cc1` | -41.02 |
| 14 | `C[C@H](CO)N1C[C@H](C)[C@H](CN(C)C(=O)CCC(F)(F)F)OCCCC[C@H](C)Oc2ccc(NS(=O)(=O)c3ccc(Cl)cc3)cc2C1=O` | -56.09 |
| 15 | `CO[C@@H]1CN(C)C(=O)c2cc(NC(=O)Nc3ccc(C(F)(F)F)cc3)ccc2OC[C@@H](C)NC[C@@H]1C` | -63.41 |
| 16 | `C[C@H](CO)N1C[C@H](C)[C@H](CN(C)Cc2ccc(C(F)(F)F)cc2)Oc2c(NC(=O)c3ccc(-c4nccs4)cc3)cccc2C1=O` | -43.02 |
| 17 | `Cc1ccc(S(=O)(=O)N(C)C[C@@H]2Oc3cc(C#Cc4ccncc4)ccc3S(=O)(=O)N([C@@H](C)CO)C[C@@H]2C)cc1` | -18.18 |
| 18 | `COc1ccc(CN(C)C[C@@H]2OCCCC[C@@H](C)Oc3ccc(NS(=O)(=O)c4ccc(F)cc4)cc3C(=O)N([C@H](C)CO)C[C@H]2C)cc1` | -50.85 |
| 19 | `C[C@@H]1CCCCO[C@H](CN(C)C(=O)NC2CCCCC2)[C@H](C)CN([C@H](C)CO)C(=O)c2cc(NS(=O)(=O)c3ccc(Cl)cc3)ccc2O1` | -60.54 |
| 20 | `O=C(Nc1ccccc1F)N1CC(=O)N2[C@H](CO)[C@@H](c3ccc(C#CC4CCCC4)cc3)[C@H]2C1` | -49.41 |
| 21 | `CN1C(=O)c2cc(NC(=O)c3cccc(F)c3)ccc2OC[C@@H]2O[C@H](CC(=O)N3CCc4ccccc4C3)CC[C@@H]21` | -32.27 |
| 22 | `C[C@H]1CN([C@@H](C)CO)C(=O)c2c(c3ccccc3n2C)-c2ccccc2CO[C@@H]1CN(C)C(=O)Nc1cccc(Cl)c1Cl` | -64.69 |
| 23 | `O=C(c1ccc(F)cc1)N1CCCCN2[C@H](C1)[C@H](c1ccc(-c3ccc(F)cc3)cc1)[C@@H]2CO` | -28.59 |
| 24 | `C[C@H](CO)N1C[C@H](C)[C@H](CN(C)C(=O)Nc2cccc(C(F)(F)F)c2)OCc2ccccc2-c2ccccc2C1=O` | -30.46 |
| 25 | `O=C(C[C@@H]1CC[C@H]2[C@@H](COC[C@@H](O)CN2Cc2cc(F)ccc2F)O1)N[C@H]1CCN(Cc2ccccc2)C1` | -38.21 |
| 26 | `C[C@H]1CN([C@@H](C)CO)C(=O)Cc2cc(NC(=O)Nc3ccc(C(F)(F)F)cc3)ccc2O[C@H]1CN(C)CC1CC1` | -38 |
| 27 | `Cc1ccc(-c2ccc3c(c2)O[C@H](CN(C)Cc2ccncc2)[C@H](C)CN([C@@H](C)CO)S3(=O)=O)cc1` | -43.81 |
| 28 | `N#C[C@@H]1[C@@H](c2ccc(-c3ccc(F)cc3)cc2)[C@@H](CO)N1S(=O)(=O)Cc1ccccc1` | -56.94 |
| 29 | `C[C@H]1CN([C@@H](C)CO)S(=O)(=O)c2ccc(C#Cc3ccccc3)cc2O[C@@H]1CN(C)C(=O)CN(C)C` | -54.63 |
| 30 | `C/C=C/c1ccc2c(c1)O[C@H](CN(C)Cc1ccccc1)[C@@H](C)CN([C@@H](C)CO)S2(=O)=O` | -55.95 |
| 31 | `N#Cc1ccc(-c2ccc(C3[C@@H]4CN(C(=O)C5CCOCC5)C[C@H]3N4)cc2)cc1` (some centres not stated) | -54.07 |
| 32 | `CC(C)NC(=O)Nc1ccc2c(c1)C(=O)N([C@@H](C)CO)C[C@@H](C)[C@H](CN(C)Cc1ccc(Cl)c(Cl)c1)O2` | -36.08 |
| 33 | `COc1ccc(CN(C)C[C@@H]2OCCCC[C@H](C)Oc3ccc(NC(=O)Nc4ccc5c(c4)OCO5)cc3C(=O)N([C@H](C)CO)C[C@@H]2C)cc1` | -56.53 |
| 34 | `Cc1ccc(S(=O)(=O)Nc2ccc3c(c2)C(=O)N([C@@H](C)CO)C[C@H](C)[C@@H](CN(C)Cc2ccc(Cl)c(Cl)c2)OCCCC[C@H](C)O3)cc1` | -47.42 |
| 35 | `C[C@H](CO)N1C[C@H](C)[C@@H](CN(C)CC2CCCCC2)Oc2ccc(NC(=O)C3CCCCC3)cc2CC1=O` | -42.28 |
| 36 | `C[C@@H]1CN([C@@H](C)CO)C(=O)c2cccc(NC(=O)Nc3ccccc3)c2O[C@H]1CN(C)Cc1ccc(Cl)c(Cl)c1` | -22.47 |
| 37 | `Cc1ccc(S(=O)(=O)N2C[C@H](O)COC[C@@H]3O[C@H](CC(=O)NCc4ccc(Cl)c(Cl)c4)CC[C@H]32)cc1` | -34.46 |
| 38 | `C[C@@H]1CCCCO[C@H](CN(C)Cc2ccc(Cl)c(Cl)c2)[C@H](C)CN([C@@H](C)CO)C(=O)c2cc(NS(=O)(=O)c3ccc(F)cc3)ccc2O1` | -33.46 |
| 39 | `N#C[C@@H]1[C@H](c2ccc(C#Cc3ccccc3F)cc2)[C@H](CO)N1C(=O)C1CCCCC1` | -45.87 |
| 40 | `C[C@H](CO)N1C[C@H](C)[C@@H](CN(C)Cc2cccc(F)c2)OCc2ccccc2-c2c(n(C)c3ccccc23)C1=O` | -56.01 |
| 41 | `COc1ccc(NC(=O)N2CCCCN3[C@H](C2)[C@H](c2ccc(-c4ccccc4C)cc2)[C@@H]3CO)cc1` | -38.42 |
| 42 | `Cc1ccccc1-c1ccc(C2[C@@H]3CN(C(=O)Nc4cccc(F)c4)C[C@H]2N3)cc1` (some centres not stated) | -82 |
| 43 | `Fc1cccc(-c2ccc(C3[C@@H]4CN(Cc5cccnc5)C[C@H]3N4)cc2)c1` (some centres not stated) | -27.27 |
| 44 | `O=C(Cc1ccccc1)N1CC(=O)N2[C@H](CO)[C@@H](c3ccc(-c4cccc(F)c4)cc3)[C@H]2C1` | -36.06 |
| 45 | `C[C@@H]1CN([C@@H](C)CO)C(=O)c2c(c3ccccc3n2C)-c2ccccc2CO[C@@H]1CN(C)Cc1ccc(C(F)(F)F)cc1` | -39.73 |
| 46 | `C[C@@H]1CN([C@@H](C)CO)C(=O)c2cc(NC(=O)CCCN(C)C)ccc2O[C@@H]1CN(C)Cc1ccc(Cl)c(Cl)c1` | -30.08 |
| 47 | `Cc1noc(C)c1S(=O)(=O)Nc1ccc2c(c1)C(=O)N([C@@H](C)CO)C[C@@H](C)[C@H](CN(C)Cc1ccc(Cl)c(Cl)c1)OCCCC[C@@H](C)O2` | -74.06 |
| 48 | `C[C@@H]1CN([C@H](C)CO)C(=O)c2cc(C#CC3CCCC3)cnc2O[C@@H]1CN(C)S(=O)(=O)c1cccc(F)c1` | -27.69 |
| 49 | `C[C@H](CO)N1C[C@H](C)[C@@H](CN(C)C(=O)Nc2ccc(C(F)(F)F)cc2)Oc2c(NC(=O)Nc3ccc(F)cc3)cccc2C1=O` | -20.66 |
| 50 | `C[C@H]1CN([C@@H](C)CO)S(=O)(=O)c2ccc(C#CCC3CCCC3)cc2O[C@H]1CN(C)C(=O)CN(C)C` | -79.81 |
| 51 | `CC(C)C#Cc1ccc2c(c1)O[C@H](CN(C)Cc1cccnc1)[C@@H](C)CN([C@@H](C)CO)S2(=O)=O` | -59.51 |
| 52 | `Cc1ccc(-c2ccc([C@@H]3[C@H](CO)N4CCCCN(C)C[C@@H]34)cc2)cc1` | -37.75 |
| 53 | `Cc1noc(C)c1S(=O)(=O)Nc1ccc2c(c1)C(=O)N([C@H](C)CO)C[C@@H](C)[C@@H](CN(C)S(=O)(=O)c1ccc(Cl)cc1)OCCCC[C@H](C)O2` | -31.46 |
| 54 | `N#Cc1ccc(-c2ccc([C@@H]3[C@H](CO)N4CCCCN(C(=O)Cc5ccccc5)C[C@@H]34)cc2)cc1` | -47.82 |
| 55 | `C[C@@H]1CN([C@H](C)CO)C(=O)c2cc(NC(=O)c3ccccc3)ccc2O[C@@H](C)CCCCO[C@H]1CN(C)C(=O)C1CCCCC1` | -46.55 |
| 56 | `C[C@@H]1CCCCO[C@@H](CN(C)C(=O)c2ccccc2)[C@H](C)CN([C@@H](C)CO)C(=O)c2cc(NC(=O)c3ccccc3)ccc2O1` | -34.29 |